The source of these data is PubChem BioAssay AID330 (DTP/NCI, 2004).

The subject of this assay is P388 leukemia ip, CD2F1 mice, survival T/C. The assay can be described thus: NCI In Vivo Anticancer Drug Screen. Data for tumor model P388 Leukemia (intraperitoneal) in CD2F1 (CDF1) mice. Conditions: T/C endpoint: median survival time, higher T/C = longer survival.
[1] abbreviates: dose: 6.25 mg/kg/injection, schedule: Q01DX009 (ip), vehicle: saline.
[2] abbreviates: dose: 12.5 mg/kg/injection, schedule: Q01DX009 (ip), vehicle: saline.
Where [3] appears, read: dose: 200.0 mg/kg/injection, schedule: Q01DX005 (ip), vehicle: saline with Tween-80.
The mark [4] stands for this setting: dose: 100.0 mg/kg/injection, schedule: Q04DX003 (ip), vehicle: saline with Tween-80.
Where [5] appears, read: dose: 200.0 mg/kg/injection, schedule: Q04DX003 (ip), vehicle: saline with Tween-80.
Setting [6] is: dose: 400.0 mg/kg/injection, schedule: Q04DX003 (ip), vehicle: saline with Tween-80.
Where [7] appears, read: dose: 240.0 mg/kg/injection, schedule: Q01DX005 (ip), vehicle: saline with Tween-80.
Where [8] appears, read: dose: 8.0 mg/kg/injection, schedule: Q01DX001 (ip), vehicle: water.
The mark [9] stands for this setting: dose: 16.0 mg/kg/injection, schedule: Q01DX001 (ip), vehicle: water.
[10] abbreviates: dose: 32.0 mg/kg/injection, schedule: Q01DX001 (ip), vehicle: water.
The mark [11] stands for this setting: dose: 12.5 mg/kg/injection, schedule: Q01DX001 (ip), vehicle: water.

The list shows only some results of the screen, not a fair sample: it gathers tests that were run many times, whatever their T/C, doses with no T/C, and many T/C values between a quarter and a half above the control. Other doses and runs of a compound stand elsewhere. T/C gives the treated animals as a percentage of the vehicle group. Some doses have a count of surviving animals in place of a T/C: the source files T/C as zero there, which appears to mark a toxic dose or a test without result, not a measured value. Some survivor counts are full or nearly so, which does not show that the dose was tolerated: survival well below the control is almost never listed, so the zero probably covers shortened survival too. Counts of survivors are from the toxicity check (mostly the fifth day) where no day follows; animals may have died later. Schedule codes are those of the source, taken here to give the interval after Q, in days (D) or hours (H), and the number of doses after X. Some entries were tested several times; the results are listed from low to high. Counts like (3×) count equal records among those shown. Where survival is the endpoint, this PubChem deposit counts one and a half times the control or more as active, and values a quarter to a half above the control carry no call in these data; other NCI protocols may use other cut-offs. Some T/C values are followed by the survivors on the day toxicity was checked, most often the fifth; without a count, all were alive then.

For the molecule `C=C1C(=O)OC2CC(C)C3CC(O)OC(O)C3(C)CC12` (configuration not stated), the survivor count was 4 of 6 under setting [1]; 2 of 6 under setting [2]; 3 of 6 (dose: 25.0 mg/kg/injection, schedule: Q01DX009 (ip), vehicle: saline with Tween-80); 0 of 6 (2×) (dose: 50.0 mg/kg/injection, schedule: Q01DX009 (ip), vehicle: saline with Tween-80); 0 of 6 (2×) (dose: 100.0 mg/kg/injection, schedule: Q01DX009 (ip), vehicle: saline with Tween-80); 0 of 6 (2×) (dose: 200.0 mg/kg/injection, schedule: Q01DX009 (ip), vehicle: saline with Tween-80).
For the molecule `COc1cc2c(cc1OC)CN1CCCC1C2` (configuration not stated), the survivor count is, setting by setting: (dose: 50.0 mg/kg/injection, schedule: Q01DX005 (ip), vehicle: other) 2 of 6; (dose: 100.0 mg/kg/injection, schedule: Q01DX005 (ip), vehicle: other) 0 of 6; (dose: 200.0 mg/kg/injection, schedule: Q01DX005 (ip), vehicle: other) 0 of 6.
On to `CC1(C)CCC2(C(=O)O)CCC3(C)C(=CCC4C5(C)CCC(OC6OC(CO)C(O)C(OC7OC(CO)C(O)C(O)C7O)C6OC6OC(CO)C(O)C(O)C6O)C(C)(C)C5CCC43C)C2C1` (configuration not stated), for which, under “dose: 60.0 mg/kg/injection, schedule: Q01DX005 (ip), vehicle: Klucel (hydroxypropylcellulose) (HPC)”, the survivor count was 5 of 5.
`CCOC(=O)C(N)CSC` (configuration not stated): for the setting “dose: 100.0 mg/kg/injection, schedule: Q01DX009 (ip), vehicle: water”, the survivor count is listed as 6 of 6.
As for `COC(=O)Nc1nc2ccc(C(O)(c3ccccc3)c3cccs3)cc2[nH]1` (configuration not stated), under setting [3], the T/C is 126 % of control.
Turning to `S=P(N1CCCCCC1)(N1CC1)N1CC1`, the T/C is, setting by setting: under setting [2], 127 % of control; (dose: 25.0 mg/kg/injection, schedule: Q04DX003 (ip), vehicle: saline with Tween-80) 127 % of control. The survivor count is 6 of 6 (dose: 75.0 mg/kg/injection, schedule: Q04DX003 (ip), vehicle: saline sonified); 3 of 6 under setting [4]; 5 of 6 under setting [5]; 0 of 6 under setting [6].
Consider `CC(O)CN=Cc1ccccc1[O-].CC(O)CN=Cc1ccccc1[O-].[Cu+2]` (configuration not stated), for which the survivor count (dose: 120.0 mg/kg/injection, schedule: Q01DX005 (ip), vehicle: saline with Tween-80) is on record as 3 of 6 and the survivor count under setting [7] is listed as 0 of 6.
`CCCCCC(C1SC(=S)NC1=O)C1SC(=S)NC1=O` (configuration not stated): the survivor count under setting [3] is 2 of 5.
The same measure, in the same setting: the figure for `Cc1nc2ccccc2n(CC2CCCN3CCCC[C@H]23)c1=O` (some centres not stated) is 0 of 6.
With `CCCc1cc(=O)n(-c2ccc([N+](=O)[O-])cn2)c(=S)[nH]1`, the survivor count is on record as 3 of 5 (dose: 100.0 mg/kg/injection, schedule: Q01DX005 (ip), vehicle: Klucel (hydroxypropylcellulose) (HPC)) and 0 of 5 (dose: 200.0 mg/kg/injection, schedule: Q01DX005 (ip), vehicle: Klucel (hydroxypropylcellulose) (HPC)).
Regarding `CCCCCC(CN(C)C)C(=O)/C=C/c1ccc(O)cc1` (configuration not stated), the survivor count (dose: 200.0 mg/kg/injection, schedule: Q01DX009 (ip), vehicle: saline) is 1 of 6.
For the molecule `C/C=C/C=C1/OC(C)=C(C(=O)OCC)C1=O`, the T/C by setting is: (dose: 25.0 mg/kg/injection, schedule: Q01DX009 (ip), vehicle: Klucel (hydroxypropylcellulose) (HPC)) 127 % of control; (dose: 50.0 mg/kg/injection, schedule: Q01DX009 (ip), vehicle: Klucel (hydroxypropylcellulose) (HPC)) 127 % of control. Also, the survivor count (dose: 100.0 mg/kg/injection, schedule: Q01DX009 (ip), vehicle: Klucel (hydroxypropylcellulose) (HPC)) is reported as 6 of 6 and the survivor count (dose: 200.0 mg/kg/injection, schedule: Q01DX009 (ip), vehicle: Klucel (hydroxypropylcellulose) (HPC)) is recorded as 3 of 6.
In the case of `COP(=O)(N/N=C/C(=O)O)OC`, where the note is “dose: 400.0 mg/kg/injection, schedule: Q01DX009 (ip), vehicle: water”, the survivor count was 1 of 6.
With `CC(=O)CC(=O)c1ccc(C)cc1.CC(=O)CC(=O)c1ccc(C)cc1.[Ni]`, the survivor count (dose: 12.5 mg/kg/injection, schedule: Q01DX005 (ip), vehicle: saline with Tween-80) is 4 of 5; the survivor count (dose: 25.0 mg/kg/injection, schedule: Q01DX005 (ip), vehicle: saline with Tween-80) is listed as 5 of 5; the survivor count under setting [4] is 3 of 6 and 3 of 5; the survivor count under setting [5] is listed as 2 of 6; the survivor count under setting [6] was 0 of 6.
Regarding `CC[C@@H]1CN2CCc3c([nH]c4ccccc34)[C@@](C(=O)OC)(c3cc4c(cc3OC)N(C)[C@H]3[C@@](O)(C(=O)OC)[C@H](OC(C)=O)[C@]5(CC)C=CCN6CC[C@]43[C@@H]65)C[C@H](C2)C1=O`, the T/C under setting [8] was 126 % of control; the T/C under setting [9] was 126 % of control; the T/C (dose: 32.0 mg/kg/injection, schedule: Q01DX001 (ip), vehicle: distilled water + Tween-80) is 128 % of control [5 of 6 alive]; the T/C under setting [10] was 145 % of control. Also, the survivor count (dose: 64.0 mg/kg/injection, schedule: Q01DX001 (ip), vehicle: distilled water + Tween-80) is 0 of 6 and the survivor count (dose: 128.0 mg/kg/injection, schedule: Q01DX001 (ip), vehicle: distilled water + Tween-80) is listed as 0 of 6.
Regarding `c1ccc(N/N=C2/CCN3CCCc4cccc2c43)cc1`, the survivor count (dose: 100.0 mg/kg/injection, schedule: Q04DX003 (ip), vehicle: DMSO) is recorded as 6 of 6.
As for `CC[C@@H]1CN2CCc3c([nH]c4ccccc34)[C@@](C(=O)OC)(c3cc4c(cc3OC)N(C)[C@H]3[C@@](O)(C(=O)OC)[C@H](OC(C)=O)[C@]5(CC)C=CCN6CC[C@]43[C@@H]65)C[C@H](C2)[C@H]1O`, the T/C is, setting by setting: under setting [8], 128 and 130 % of control; under setting [9], 133 and 141 % of control; under setting [10], 132 and 146 % of control. For the same molecule, the survivor count (dose: 128.0 mg/kg/injection, schedule: Q01DX001 (ip), vehicle: water) is given as 4 of 6.
`CCN(CC)CCNC(=O)C(O)C1CCCCC1` (configuration not stated): the survivor count under setting [7] is on record as 2 of 6.
With `CCC1=C[C@@H]2C[C@](C(=O)OC)(c3cc4c(cc3OC)N(C)[C@H]3[C@@](O)(C(=O)NC)[C@H](OC(C)=O)[C@]5(CC)C=CCN6CC[C@]43[C@@H]65)c3[nH]c4ccccc4c3CCN(C1)[C@@H]2O`, the T/C by setting is: (dose: 0.78 mg/kg/injection, schedule: Q01DX001 (ip), vehicle: water) 130 % of control; (dose: 1.56 mg/kg/injection, schedule: Q01DX001 (ip), vehicle: water) 133 % of control; under setting [11], 127 % of control [2 of 3 alive]. The survivor count by setting is: (dose: 6.25 mg/kg/injection, schedule: Q01DX001 (ip), vehicle: water) 1 of 3 and 2 of 3; under setting [11], 1 of 3; (dose: 25.0 mg/kg/injection, schedule: Q01DX001 (ip), vehicle: water) 0 of 3, 1 of 3, 2 of 3; (dose: 50.0 mg/kg/injection, schedule: Q01DX001 (ip), vehicle: water) 0 of 3; (dose: 100.0 mg/kg/injection, schedule: Q01DX001 (ip), vehicle: water) 0 of 3; (dose: 200.0 mg/kg/injection, schedule: Q01DX001 (ip), vehicle: water) 0 of 3. Also, the survivor count (dose: 400.0 mg/kg/injection, schedule: Q01DX001 (ip), vehicle: water) was 0 of 3.
For the molecule `CNNC(=O)OC`, the survivor count (dose: 200.0 mg/kg/injection, schedule: Q01DX002 (ip), vehicle: saline) is reported as 6 of 6.
In the case of `C[CH2][Sn]([CH2]C)([N]=C=S)[N]=C=S`, the T/C under setting [1] is 147 % of control. Further, the survivor count was 0 of 6 (dose: 50.0 mg/kg/injection, schedule: Q01DX009 (ip), vehicle: suspension in saline); 0 of 6 (dose: 100.0 mg/kg/injection, schedule: Q01DX009 (ip), vehicle: suspension in saline); 0 of 6 (dose: 200.0 mg/kg/injection, schedule: Q01DX009 (ip), vehicle: suspension in saline).
